Values of other authors in patent US4021434A, “Sodium β-[2,6-dimethyl-3,5-bis(ethoxycarbonyl)-4-(3-nitrophenyl)-1,4-dihyd ropyridine-1-yl]ethyl sulfate” (Yamanouchi Pharmaceutical Co., Ltd., priority 1972, dated 1977).
At least one compound was matched to its structure with a doubt left.

Details: prior art; cited from earlier work

COC(=O)C1=C(C)NC(C)=C(C(=O)OC)C1c1ccccc1[N+](=O)[O-] [C]
coronary vasodilator action: coronary vasodilator action
spasmolytic action: spasmolytic action
